Results as given in publication PMC7955810.
These are yes or no findings as the source states them, for the method shown. Some binding calls cover weakened binding; strength is not graded here.

By UniProt entry, the sequences of proteins in these tests, tags left out. Where a name states a change or a piece, a line headed by the entry shows the natural chain unless it says otherwise.
UniProt P48736: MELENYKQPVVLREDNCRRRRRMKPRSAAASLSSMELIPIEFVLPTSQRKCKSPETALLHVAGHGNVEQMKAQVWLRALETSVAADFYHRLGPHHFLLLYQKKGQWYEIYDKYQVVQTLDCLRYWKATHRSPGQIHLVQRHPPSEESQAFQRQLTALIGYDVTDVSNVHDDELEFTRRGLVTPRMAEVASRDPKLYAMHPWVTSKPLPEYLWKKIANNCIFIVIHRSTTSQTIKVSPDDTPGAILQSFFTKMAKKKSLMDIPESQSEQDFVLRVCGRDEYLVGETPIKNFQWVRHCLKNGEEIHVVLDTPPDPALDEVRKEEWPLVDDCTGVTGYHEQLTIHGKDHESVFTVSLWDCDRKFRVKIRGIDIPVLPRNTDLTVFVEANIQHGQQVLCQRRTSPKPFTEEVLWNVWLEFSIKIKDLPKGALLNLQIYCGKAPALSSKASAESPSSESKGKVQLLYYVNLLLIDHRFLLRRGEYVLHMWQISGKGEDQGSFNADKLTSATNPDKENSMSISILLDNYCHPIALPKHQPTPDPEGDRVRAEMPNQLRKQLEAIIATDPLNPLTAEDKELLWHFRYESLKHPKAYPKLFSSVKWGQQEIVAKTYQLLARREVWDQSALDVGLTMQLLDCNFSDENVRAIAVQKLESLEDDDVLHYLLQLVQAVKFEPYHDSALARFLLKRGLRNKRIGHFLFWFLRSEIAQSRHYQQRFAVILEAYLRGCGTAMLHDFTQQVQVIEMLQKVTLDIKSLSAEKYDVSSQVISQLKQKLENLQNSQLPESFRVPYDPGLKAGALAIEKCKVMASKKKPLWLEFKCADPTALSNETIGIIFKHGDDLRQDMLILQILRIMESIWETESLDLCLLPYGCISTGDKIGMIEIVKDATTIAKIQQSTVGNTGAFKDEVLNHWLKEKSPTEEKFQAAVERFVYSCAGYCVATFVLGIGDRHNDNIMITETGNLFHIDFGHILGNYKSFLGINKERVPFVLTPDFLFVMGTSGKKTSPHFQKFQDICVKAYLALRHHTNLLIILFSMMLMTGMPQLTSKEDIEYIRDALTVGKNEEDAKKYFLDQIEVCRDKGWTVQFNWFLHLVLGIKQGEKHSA

How the values were obtained:
p110γ R1021C (human) [1] = biological target: p110γ R1021C (human) (UniProt P48736); test: HDX-MS; free p110γ compared with the p110γ/p101 complex (WT and R1021C); 13 pmol protein, D2O buffer 20 mM HEPES pH 7.5, 100 mM NaCl; 3, 30, 300, 3000 s at 20°C; both purified
[2] = biological target: p110γ, class IB PI3K catalytic subunit, wild type (human) (UniProt P48736); test: as above
p110γ R1021C (human) [3] = biological target: p110γ R1021C (human) (UniProt P48736); test: SEC; p110γ and p101 co-expressed in Sf9 and co-purified by nickel affinity, streptavidin affinity and TEV cleavage; Superdex 200 10/300 GL Increase in 20 mM Tris pH 8.5, 100 mM NaCl, 50 mM ammonium sulfate, 0.5 mM TCEP; SDS-PAGE of the final complexes; both purified
p110γ R1021P (human) = p110γ R1021P (human) (UniProt P48736); test: as above
[4] = biological target: p110γ, class IB PI3K catalytic subunit, wild type (human) (UniProt P48736); test: as above

binding (p110γ R1021C (human) [1]): binds | binding [2]: binds | binding (p110γ R1021C (human) [3]): binds | binding (p110γ R1021P (human)): binds | binding [4]: binds
B1: p101 regulatory subunit of PI3Kγ (protein, UniProt O02696 1-877)
chain: MQPGATTCTEDRIQHALERCLHGLSLSRRSTSWSAGLCLNCWSLQELVSRDPGHFLILLEQILQKTREVQEKGTYDLLAPLALLFYSTVLCTPHFPPDSDLLLKAARTYHRFLTWPVPYCSICQELLTFIDAELKAPGISYQRLVRAEQGLSTRSHRSSTVTVLLLNPVEVQAEFLDVADKLSTPGPSPHSAYITLLLHAFQATFGAHCDLSGLHRRLQSKTLAELEAIFTETAEAQELASGIGDAAEARQWLRTKLQAVGEKAGFPGVLDTAKPGKLRTIPIPVARCYTYSWNQDSFDILQEILLKEQELLQPEILDDEEDEDEEDEEEDLDADGHCAERDSVLSTGSAASHASTLSLASSQASGPTLSRQLLTSFVSGLSDGVDSGYMEDIEESAYERPRRPGGHERRGHRRPGQKFNRIYKLFKSTSQMVLRRDSRSLEGSPDSGPPLRRAGSLCSPLDSPTLPPSRAQGSRSLPQPKLSPQLPGWLLAPASRHQRRRPFLSGDEDPKASTLRVVVFGSDRISGKVVRAYSNLRRLENNRPLLTRFFKLQFFYVPVKRSRGTGTPTSPAPRSQTPPLPTDAPRHPGPAELGAAPWEESTNDISHYLGMLDPWYERNVLGLMHLPPEVLCQSLKAEPRPLEGSPAQLPILADMLLYYCRFAARPVLLQVYQTELTFITGEKTTEIFIHSLELGHSAATRAIKASGPGSKRLGIDGDREAVPLTLQIIYSKGAISGRSRWSNMEKLCTSVNLSKACRQQEELDSSTEALTLNLTEVVKRQTPKSKKGFNQISTSQIKVDKVQIIGSNSCPFAVCLDQDERKILQSVIRCEVSPCYKPEKSSLCPPPQRPSYPPAPATPDLCSLLCLPIMTFSGALP
